Values from PubChem BioAssay AID504774 (Drosophila RNAi Screening Center, 2011).
Aim: 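Genes required for cells to withstand methyl methanesulphonate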 (primary screen). Cell system: Drosophila Kc167 cells. Knock-down reagent: long dsRNA against Drosophila genes, about 0.25 µg dsRNA per well. Timing: about 6 days: 3 days knock-down, then 3 days with or without MMS. Challenge: methyl methanesulphonate 0.004% (w/v) for 3 days after knock-down. Measurement: 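ATP-dependent luminescence as a measure of live cells in MMS-exposed wells, quantile normalised within each plate, with replicate values also given as a mean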. Reading the numbers: mean viability with MMS: higher = more surviving cells after MMS.
The deposit covers about 23,000 reagents; below is an unselected part of those with a known target gene and a result. 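Values are quantile-normalised luminescence on an arbitrary scale; higher means more cells surviving MMS.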 The numbers tell different reagents against one gene apart. Not all columns of the deposit are shown.

Knock-down of ebd2 came out at: mean viability with MMS 3.43e6.
After knock-down of Vps24, the record shows mean viability with MMS 3.58e6.
Knock-down of ProtB came out at: mean viability with MMS 3.50e6.
Depletion of Nct came out at: mean viability with MMS 3.37e6.
Knock-down of Edg91 resulted in: mean viability with MMS 3.21e6.
ClC-b gave mean viability with MMS 3.66e6.
With knock-down of CG6788 the results were mean viability with MMS 3.50e6.
Rheb showed mean viability with MMS 3.41e6.
Depletion of CG8768 gave: mean viability with MMS 3.44e6.
CG14327 showed mean viability with MMS 3.27e6.
ort gave mean viability with MMS 3.62e6.
CG7432 gave mean viability with MMS 3.78e6.
For CG32462, the entry reads mean viability with MMS 3.59e6.
For ATPsynbetaL, the values are mean viability with MMS 3.60e6.
After knock-down of Nrd1 the results were mean viability with MMS 3.44e6.
After knock-down of RpS20 the results were mean viability with MMS 3.66e6.
mRpL36 showed mean viability with MMS 3.38e6.
Against Pbgs, the entry reads mean viability with MMS 3.48e6.
Against Stip1 the deposit lists mean viability with MMS 3.77e6.
CG13313 gave mean viability with MMS 3.52e6.
CG8726 scored mean viability with MMS 3.82e6.
Knock-down of CG5653 gave: mean viability with MMS 3.49e6.
With knock-down of CG13228, the record shows mean viability with MMS 3.48e6.
Against CG33770, the entry reads mean viability with MMS 3.34e6.
After knock-down of CG15628 #1 the results were mean viability with MMS 2.92e6.
Silencing of CG15628 #2 came out at: mean viability with MMS 3.52e6.
CG14641 showed mean viability with MMS 3.30e6.
Scsalpha1 showed mean viability with MMS 3.47e6.
After knock-down of Mical #1, the screen gave mean viability with MMS 3.39e6.
For Mical #2, the values are mean viability with MMS 3.46e6.
Against Mical #3 the deposit lists mean viability with MMS 3.43e6.
With knock-down of Mical #4, the screen gave mean viability with MMS 3.49e6.
Silencing of CG14397 resulted in: mean viability with MMS 3.60e6.
CG32719 gave mean viability with MMS 3.70e6.
Depletion of CG13375 gave: mean viability with MMS 3.54e6.

Part of the list above in another layout:
gene,reagent no.,mean viability with MMS
CG8726,1,3.82e6
CG5653,1,3.49e6
